The text below walks through data of publication PMC8206348.

Protein sequences, listed by entry. Tags and fused reporters are not part of them.
UniProt Q9Y5U2: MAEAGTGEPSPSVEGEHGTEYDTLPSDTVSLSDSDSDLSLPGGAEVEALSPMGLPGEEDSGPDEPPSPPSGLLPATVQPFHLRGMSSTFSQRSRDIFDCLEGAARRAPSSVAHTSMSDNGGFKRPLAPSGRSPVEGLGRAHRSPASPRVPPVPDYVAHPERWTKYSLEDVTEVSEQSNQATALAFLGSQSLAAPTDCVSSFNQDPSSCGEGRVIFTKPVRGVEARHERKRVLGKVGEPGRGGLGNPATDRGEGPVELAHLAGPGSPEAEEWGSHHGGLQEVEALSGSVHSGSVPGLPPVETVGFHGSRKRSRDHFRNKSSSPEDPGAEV

Results are given in words; binding and its absence hold for the method and conditions named. In cells and extracts the contact can be indirect.

The target of experiment [1] is TSSC4-FLAG (human) (UniProt Q9Y5U2). The experiment in a line: co-IP + co-sedimentation; TSSC4-FLAG immunoprecipitated, complexes eluted with triple FLAG peptide and resolved on a 10–30% glycerol gradient (130,000×g, 17 h, 4 °C; 20 mM HEPES/KOH pH 8.0, 150 mM KCl, 1.5 mM MgCl2); western blot of the fractions. In general terms: A western blot detects proteins with antibodies after separation by electrophoresis.

The target is the same in experiment [2]. The experiment in a line: co-IP; anti-GFP or anti-FLAG antibodies pre-bound to agarose beads, overnight at 4 °C; lysates of transfected HeLa cells in NET2 buffer (50 mM Tris-HCl pH 7.4, 150 mM NaCl, 0.05% Nonidet P-40); western blot; also from RNase A treated lysates (Fig. 1d).
The next experiment deals with TSSC4-GFP (human) (UniProt Q9Y5U2). The experiment is described as above.

B1: PRPF4 (protein, UniProt O43172 1-522)
chain: MASSRASSTQATKTKAPDDLVAPVVKKPHIYYGSLEEKERERLAKGESGILGKDGLKAGIEAGNINITSGEVFEIEEHISERQAEVLAEFERRKRARQINVSTDDSEVKACLRALGEPITLFGEGPAERRERLRNILSVVGTDALKKTKKDDEKSKKSKEEYQQTWYHEGPNSLKVARLWIANYSLPRAMKRLEEARLHKEIPETTRTSQMQELHKSLRSLNNFCSQIGDDRPISYCHFSPNSKMLATACWSGLCKLWSVPDCNLLHTLRGHNTNVGAIVFHPKSTVSLDPKDVNLASCAADGSVKLWSLDSDEPVADIEGHTVRVARVMWHPSGRFLGTTCYDRSWRLWDLEAQEEILHQEGHSMGVYDIAFHQDGSLAGTGGLDAFGRVWDLRTGRCIMFLEGHLKEIYGINFSPNGYHIATGSGDNTCKVWDLRQRRCVYTIPAHQNLVTGVKFEPIHGNFLLTGAYDNTAKIWTHPGWSPLKTLAGHEGKVMGLDISSDGQLIATCSYDRTFKLWMAE
As for B1, the binding result with TSSC4-FLAG (human) [1] is “no binding”.

B2: SART3 (protein, UniProt Q15020 1-963)
chain: MATAAETSASEPEAESKAGPKADGEEDEVKAARTRRKVLSRAVAAATYKTMGPAWDQQEEGVSESDGDEYAMASSAESSPGEYEWEYDEEEEKNQLEIERLEEQLSINVYDYNCHVDLIRLLRLEGELTKVRMARQKMSEIFPLTEELWLEWLHDEISMAQDGLDREHVYDLFEKAVKDYICPNIWLEYGQYSVGGIGQKGGLEKVRSVFERALSSVGLHMTKGLALWEAYREFESAIVEAARLEKVHSLFRRQLAIPLYDMEATFAEYEEWSEDPIPESVIQNYNKALQQLEKYKPYEEALLQAEAPRLAEYQAYIDFEMKIGDPARIQLIFERALVENCLVPDLWIRYSQYLDRQLKVKDLVLSVHNRAIRNCPWTVALWSRYLLAMERHGVDHQVISVTFEKALNAGFIQATDYVEIWQAYLDYLRRRVDFKQDSSKELEELRAAFTRALEYLKQEVEERFNESGDPSCVIMQNWARIEARLCNNMQKARELWDSIMTRGNAKYANMWLEYYNLERAHGDTQHCRKALHRAVQCTSDYPEHVCEVLLTMERTEGSLEDWDIAVQKTETRLARVNEQRMKAAEKEAALVQQEEEKAEQRKRARAEKKALKKKKKIRGPEKRGADEDDEKEWGDDEEEQPSKRRRVENSIPAAGETQNVEVAAGPAGKCAAVDVEPPSKQKEKAASLKRDMPKVLHDSSKDSITVFVSNLPYSMQEPDTKLRPLFEACGEVVQIRPIFSNRGDFRGYCYVEFKEEKSALQALEMDRKSVEGRPMFVSPCVDKSKNPDFKVFRYSTSLEKHKLFISGLPFSCTKEELEEICKAHGTVKDLRLVTNRAGKPKGLAYVEYENESQASQAVMKMDGMTIKENIIKVAISNPPQRKVPEKPETRKAPGGPMLLPQTYGARGKGRTQLSLLPRALQRPSAAAPQAENGPAAAPAVAAPAATEAPKMSNADFAKLFLRK
For B2, the binding result with TSSC4-FLAG (human) [2] and with TSSC4-GFP (human) was “no binding” throughout.
